Results deposited as PubChem BioAssay AID1508597 (Cure First, 2020).
This is an unselected part of the about 2,100 reagents, in one setting of the screen. 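Calls flag viability under 80% in either arm, not effects specific to rucaparib; the reference for percent is not stated.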 Entries without a mark were called inactive. Reagent sequences are not shown. Not stated in the record: the 100% reference.

Screen: 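Genes whose silencing sensitises or protects ovarian cancer cells against rucaparib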 (primary screen)
Cell system: human ovarian carcinoma lines grown from tumours: OCI-P5x (papillary serous) and OCI-C5x (clear cell)
Knock-down reagent: siRNA pool against human genes, 1.25 pmol siRNA per well
Timing: 72 h or 96 h, depending on the cell culture
Treatment: rucaparib 20 µM (about IC30) or vehicle, present until read-out
Rucaparib or vehicle: Vehicle
Cell line: OCI-C5x (clear cell)
Measurement: 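Luminescent ATP-based viability assay read 72 or 96 h after transfection, depending on culture, given as normalised percent viability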
Scale: viability, normalised: higher = more viable cells remaining
Rule for the call: 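Active when normalised viability falls below 80 percent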
Calls: active = viability under 80%; inactive = viability 80% or more

Target gene	technical replicate	viability, normalised (%)
TAF9	1	58.3 (active)
TAF9	2	55.7 (active)
TAF9	3	44 (active)
SMAD1	1	36.6 (active)
SMAD1	2	39 (active)
SMAD1	3	36.6 (active)
MVK	1	67.7 (active)
MVK	2	61.9 (active)
MVK	3	62.4 (active)
PADI4	1	52.9 (active)
PADI4	2	51.2 (active)
PADI4	3	52.7 (active)
MYOD1	1	45.2 (active)
MYOD1	2	32.3 (active)
MYOD1	3	41 (active)
EPC1	1	54.4 (active)
EPC1	2	63.1 (active)
EPC1	3	71.4 (active)
BID	1	32.8 (active)
BID	2	39.3 (active)
BID	3	30.2 (active)
PIK3R2	1	35.8 (active)
PIK3R2	2	43.7 (active)
PIK3R2	3	46.2 (active)
BBC3	1	38.6 (active)
BBC3	2	44.3 (active)
BBC3	3	49.6 (active)
ITGA4	1	38.9 (active)
ITGA4	2	42 (active)
ITGA4	3	50.9 (active)
MTA3	1	53.8 (active)
MTA3	2	60.8 (active)
MTA3	3	58.6 (active)
BMP2	1	27.4 (active)
BMP2	2	39.2 (active)
BMP2	3	32.9 (active)
MED6	1	45.7 (active)
MED6	2	40.4 (active)
MED6	3	48.9 (active)

In a second layout: 4 of the entries above.
Target gene,technical replicate,"viability, normalised (%)"
MVK,1,67.7 (active)
MVK,2,61.9 (active)
MVK,3,62.4 (active)
PADI4,1,52.9 (active)
